According to US20240010714A1 (MBRACE THERAPEUTICS, published 2024):
No constants are given. Whether binding was seen depends on the method and setting. Binding seen in cells or lysates may run through a third protein. Some results given as binding are weak or reduced against the parent protein; the word gives no strength. One block for each binder: values may come before it.

By UniProt entry, the sequences of proteins in these tests, tags left out. Residues count along the entry.
UniProt G3I8R9, residues 19-654: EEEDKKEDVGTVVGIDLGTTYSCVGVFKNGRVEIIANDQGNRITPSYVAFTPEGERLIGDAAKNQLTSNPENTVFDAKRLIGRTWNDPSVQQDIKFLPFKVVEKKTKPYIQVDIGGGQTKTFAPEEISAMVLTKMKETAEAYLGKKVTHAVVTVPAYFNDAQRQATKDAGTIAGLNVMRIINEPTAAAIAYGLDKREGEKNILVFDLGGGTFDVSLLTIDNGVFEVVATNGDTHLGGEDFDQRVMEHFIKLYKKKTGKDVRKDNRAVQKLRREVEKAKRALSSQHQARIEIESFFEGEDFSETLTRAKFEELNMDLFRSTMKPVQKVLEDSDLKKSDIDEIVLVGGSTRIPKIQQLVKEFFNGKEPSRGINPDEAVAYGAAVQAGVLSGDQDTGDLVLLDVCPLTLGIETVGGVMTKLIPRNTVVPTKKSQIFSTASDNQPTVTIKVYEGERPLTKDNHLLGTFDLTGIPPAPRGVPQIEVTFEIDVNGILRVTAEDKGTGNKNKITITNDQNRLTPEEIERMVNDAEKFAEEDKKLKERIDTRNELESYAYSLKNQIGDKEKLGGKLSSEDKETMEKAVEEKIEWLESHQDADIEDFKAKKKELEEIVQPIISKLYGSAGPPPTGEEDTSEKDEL

Biological target: native GRP78 of CHO cells (endoplasmic reticulum protein) (Chinese hamster (CHO cells)) (UniProt G3I8R9)
Experiment: co-purification from CHO supernatant, SDS-PAGE (extra band between 70-80 kDa)

binding: binds
B1: anti-GRP78 antibody clone B4 (antibody, IgG1, V domains shown)
VH: QVRLQESGPGLVKPSQTLSLTCTVSGGSISSGGYYWSWIRQHPGKGLEWIGYIYYSGSTYYNPSLESRVTISVDTSKNQFSLKLSSVTAADTAVYYCARYSSIDAFEIWGQGTMVTVSS
VL: SYVLTQPPSVSVAPGKTATITCGGDDIGSKSVHWYQQKPGQAPVLVVYDDGDRPSGIPERFSGSNSGNTATLAISRVEAGDEADYYCQVWDSSSDQYVFGSGTKLTVL
notes: Fully human mAb formatted as full-length IgG1; also called B4 mAb

binding: binds
B2: anti-GRP78 antibody clone F6 (antibody, IgG1, V domains shown)
VH: QVQLQQSGPGLVKPPQTLSLTCAISGDSVSSNSAAWNWIRQSPSRGLEWLGRTYYRSKWYNDYAVSVKSRITINPDTSKNQFSLQLNSVTPEDTAVYYCARDPYYYDSSGYYYFDAFDIWGQGTMVTVSS
VL: SYELTQPHSVSVAPGQTARITCGGDNIGSKSVHWYQQRPGQAPVLVVYDDSDRPSGIPERFSGSNSENTATLTISGVEAGDEADYYCQVWDSTSHHVVFGGGTKLTVL
notes: Fully human mAb formatted as full-length IgG1; also called F6 mAb; Anti-GRP78 (F6)
